PubChem BioAssay AID1259284 | Sanger Institute | 2017
Assay: 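Kinase genes needed for growth or acting with cancer drugs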 (primary screen). System: SW48 human colorectal cancer cells. Reagents: siRNA pool against human genes. Challenge: anchor drug BYL719 at 1 µM, cetuximab at 5 µg/ml or trametinib at 10 nM, or DMSO vehicle alone. Measurement: 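Viability scaled to non-targeting control pool, robust z-score from controls, and synergy scores for each drug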. Direction: robust z-score, no drug: higher = more cells survive knock-down. Call rule: 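Called essential when the robust z-score of viability without drug falls below -3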. Calls: active = essential without drug; inactive = no change without drug.
Here is an unselected part of 794 deposited reagents. 16 of all reagents (2%) count as active. 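Calls concern knock-down without drug only; drug synergy was judged apart, with scores above 0.15 taken as synergy.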 The numbers tell different reagents against one gene apart. Further read-outs or replicates are left out here. No sequences are given here. Not stated in the record: the amount of reagent, the time to read-out.

robust z-score, no drug, by gene and reagent
RIPK4 (receptor interacting serine/threonine kinase 4): #1 0.426 inactive
CHKA (choline kinase alpha): #1 -0.0647 inactive
PTPN11 (protein tyrosine phosphatase non-receptor type 11): #1 -0.31 inactive
SPHK1 (sphingosine kinase 1): #1 0.426 inactive
TBK1 (TANK binding kinase 1): #1 0.146 inactive
ITPK1 (inositol-tetrakisphosphate 1-kinase): #1 0.426 inactive
ZAP70 (zeta chain of T cell receptor associated protein kinase 70): #1 0.426 inactive
ITK (IL2 inducible T cell kinase): #1 0.426 inactive
STKLD1 (serine/threonine kinase like domain containing 1): #1 0.426 inactive
MAPK6 (mitogen-activated protein kinase 6): #1 0.426 inactive
PRKCZ (protein kinase C zeta): #1 -1.71 inactive
MVK (mevalonate kinase): #1 -1 inactive
AK4 (adenylate kinase 4): #1 0.426 inactive
MAP2K2 (mitogen-activated protein kinase kinase 2): #1 0.426 inactive
ROS1 (ROS proto-oncogene 1, receptor tyrosine kinase): #1 0.426 inactive
PRP4K (pre-mRNA processing factor kinase PRP4K): #1 0.426 inactive
MAPK8 (mitogen-activated protein kinase 8): #1 0.426 inactive
CDKN1A (cyclin dependent kinase inhibitor 1A): #1 0.426 inactive
SRPK1 (SRSF protein kinase 1): #1 0.426 inactive
STRADA (STE20 related adaptor alpha): #1 0.426 inactive
CSNK1A1L (casein kinase 1 alpha 1 like): #1 0.426 inactive
SLK (STE20 like kinase): #1 0.426 inactive
PRKAA1 (protein kinase AMP-activated catalytic subunit alpha 1): #1 0.426 inactive
CSNK1G3 (casein kinase 1 gamma 3): #1 0.426 inactive
RPS6KA1 (ribosomal protein S6 kinase A1): #1 -0.401 inactive
RIPK2 (receptor interacting serine/threonine kinase 2): #1 -3.01 active
CSK (C-terminal Src kinase): #1 -1.69 inactive
PLK1 (polo like kinase 1): #1 -7.86 active
IGF1R (insulin like growth factor 1 receptor): #1 0.426 inactive
VRK2 (VRK serine/threonine kinase 2): #1 0.426 inactive
ATP23: #1 0.426 inactive

Individual results from the list.
Value for CSK (C-terminal Src kinase) under “robust z-score, no drug”: -1.69
For “robust z-score, no drug”, IGF1R (insulin like growth factor 1 receptor) has 0.426
STRADA (STE20 related adaptor alpha), Outcome: inactive
Under “robust z-score, no drug”, PRP4K (pre-mRNA processing factor kinase PRP4K) reads 0.426
AK4 (adenylate kinase 4), robust z-score, no drug = 0.426
Entry of SLK (STE20 like kinase) under “robust z-score, no drug”: 0.426

The listing continues.
robust z-score, no drug, by gene and reagent
PIP4K2C (phosphatidylinositol-5-phosphate 4-kinase type 2 gamma): #1 0.426 inactive
APC (APC regulator of Wnt signaling pathway): #1 0.426 inactive
CLK1 (CDC like kinase 1): #1 0.426 inactive
PAK5 (p21 (RAC1) activated kinase 5): #1 0.426 inactive
BRDT (bromodomain testis associated): #1 0.426 inactive
PACSIN1 (protein kinase C and casein kinase substrate in neurons 1): #1 0.426 inactive
CDK11A (cyclin dependent kinase 11A): #1 0.426 inactive
NR2F2 (nuclear receptor subfamily 2 group F member 2): #1 0.426 inactive
FGFR3 (fibroblast growth factor receptor 3): #1 0.0211 inactive
DCLK1 (doublecortin like kinase 1): #1 0.299 inactive
SKAP1 (src kinase associated phosphoprotein 1): #1 0.426 inactive
ILK (integrin linked kinase): #1 0.426 inactive; #2 0.426 inactive
MYO3A (myosin IIIA): #1 -1.42 inactive
MAGI1: #1 0.426 inactive
BLK (BLK proto-oncogene, Src family tyrosine kinase): #1 0.426 inactive
NLK (nemo like kinase): #1 0.426 inactive
FBXW7 (F-box and WD repeat domain containing 7): #1 0.426 inactive
NEK5 (NIMA related kinase 5): #1 0.426 inactive
PDXK (pyridoxal kinase): #1 0.426 inactive
PIP4K2B (phosphatidylinositol-5-phosphate 4-kinase type 2 beta): #1 0.426 inactive
FN3K (fructosamine 3 kinase): #1 0.426 inactive
ULK3 (unc-51 like kinase 3): #1 0.426 inactive
TGFBR3 (transforming growth factor beta receptor 3): #1 0.426 inactive
BRD3 (bromodomain containing 3): #1 0.426 inactive
IGF2R (insulin like growth factor 2 receptor): #1 0.426 inactive
DUSP21 (dual specificity phosphatase 21): #1 0.426 inactive
CSNK1A1 (casein kinase 1 alpha 1): #1 0.426 inactive
MAP4K1 (mitogen-activated protein kinase kinase kinase kinase 1): #1 -1.04 inactive
PRKG2 (protein kinase cGMP-dependent 2): #1 0.426 inactive
EFNA5 (ephrin A5): #1 0.426 inactive
CSNK1E (casein kinase 1 epsilon): #1 -1.46 inactive
